Some of the results follow.

Chains of the proteins cited; added tags and fusions are not shown. Lines headed by an entry give the natural chain unless they say otherwise; changes in a name come on top.
UniProt O95870: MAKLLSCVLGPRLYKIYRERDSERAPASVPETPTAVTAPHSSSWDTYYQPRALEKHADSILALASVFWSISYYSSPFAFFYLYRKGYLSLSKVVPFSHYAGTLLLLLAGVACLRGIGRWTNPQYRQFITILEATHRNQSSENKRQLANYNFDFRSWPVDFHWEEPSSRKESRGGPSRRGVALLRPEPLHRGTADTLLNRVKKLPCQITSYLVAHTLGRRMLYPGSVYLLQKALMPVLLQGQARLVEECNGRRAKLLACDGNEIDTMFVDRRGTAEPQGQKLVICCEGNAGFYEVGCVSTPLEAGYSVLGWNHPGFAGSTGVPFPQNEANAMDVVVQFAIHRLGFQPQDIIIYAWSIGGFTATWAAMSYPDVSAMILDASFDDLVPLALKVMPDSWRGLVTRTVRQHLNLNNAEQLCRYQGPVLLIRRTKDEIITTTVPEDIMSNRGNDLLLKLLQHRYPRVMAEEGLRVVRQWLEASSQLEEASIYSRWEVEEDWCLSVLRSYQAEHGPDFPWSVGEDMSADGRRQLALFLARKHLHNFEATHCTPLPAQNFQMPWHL
UniProt P24666: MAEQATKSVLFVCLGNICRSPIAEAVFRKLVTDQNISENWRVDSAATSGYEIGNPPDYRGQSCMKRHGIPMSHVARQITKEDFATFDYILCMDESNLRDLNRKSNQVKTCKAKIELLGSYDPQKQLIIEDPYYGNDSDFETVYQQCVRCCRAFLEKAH
UniProt Q96GS6: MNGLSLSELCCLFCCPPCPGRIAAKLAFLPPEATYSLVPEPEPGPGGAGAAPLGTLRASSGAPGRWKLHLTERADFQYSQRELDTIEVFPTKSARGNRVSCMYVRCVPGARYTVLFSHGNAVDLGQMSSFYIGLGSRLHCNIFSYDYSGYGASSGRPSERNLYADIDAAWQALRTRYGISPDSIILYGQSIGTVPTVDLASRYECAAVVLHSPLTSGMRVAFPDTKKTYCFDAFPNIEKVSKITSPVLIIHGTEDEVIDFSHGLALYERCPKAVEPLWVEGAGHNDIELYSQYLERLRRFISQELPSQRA
UniProt Q15057: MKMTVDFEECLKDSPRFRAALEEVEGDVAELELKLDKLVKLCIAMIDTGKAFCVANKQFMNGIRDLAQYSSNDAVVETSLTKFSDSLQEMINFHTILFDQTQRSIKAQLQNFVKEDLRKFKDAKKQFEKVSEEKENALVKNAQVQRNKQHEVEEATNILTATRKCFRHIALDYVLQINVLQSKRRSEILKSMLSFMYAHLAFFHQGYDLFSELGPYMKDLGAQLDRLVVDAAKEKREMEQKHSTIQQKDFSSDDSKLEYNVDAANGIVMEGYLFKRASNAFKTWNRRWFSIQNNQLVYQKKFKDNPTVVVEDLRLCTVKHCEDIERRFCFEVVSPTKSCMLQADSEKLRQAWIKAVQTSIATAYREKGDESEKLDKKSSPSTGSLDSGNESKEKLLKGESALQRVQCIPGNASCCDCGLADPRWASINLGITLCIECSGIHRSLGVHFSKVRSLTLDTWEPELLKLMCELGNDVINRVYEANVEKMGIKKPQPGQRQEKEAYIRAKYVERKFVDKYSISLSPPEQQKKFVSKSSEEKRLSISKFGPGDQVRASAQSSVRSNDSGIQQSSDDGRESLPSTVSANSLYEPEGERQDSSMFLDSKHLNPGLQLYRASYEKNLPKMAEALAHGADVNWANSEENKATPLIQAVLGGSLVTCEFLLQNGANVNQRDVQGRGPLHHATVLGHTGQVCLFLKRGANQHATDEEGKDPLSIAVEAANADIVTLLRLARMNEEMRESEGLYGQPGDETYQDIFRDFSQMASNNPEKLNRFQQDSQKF
UniProt Q96M93: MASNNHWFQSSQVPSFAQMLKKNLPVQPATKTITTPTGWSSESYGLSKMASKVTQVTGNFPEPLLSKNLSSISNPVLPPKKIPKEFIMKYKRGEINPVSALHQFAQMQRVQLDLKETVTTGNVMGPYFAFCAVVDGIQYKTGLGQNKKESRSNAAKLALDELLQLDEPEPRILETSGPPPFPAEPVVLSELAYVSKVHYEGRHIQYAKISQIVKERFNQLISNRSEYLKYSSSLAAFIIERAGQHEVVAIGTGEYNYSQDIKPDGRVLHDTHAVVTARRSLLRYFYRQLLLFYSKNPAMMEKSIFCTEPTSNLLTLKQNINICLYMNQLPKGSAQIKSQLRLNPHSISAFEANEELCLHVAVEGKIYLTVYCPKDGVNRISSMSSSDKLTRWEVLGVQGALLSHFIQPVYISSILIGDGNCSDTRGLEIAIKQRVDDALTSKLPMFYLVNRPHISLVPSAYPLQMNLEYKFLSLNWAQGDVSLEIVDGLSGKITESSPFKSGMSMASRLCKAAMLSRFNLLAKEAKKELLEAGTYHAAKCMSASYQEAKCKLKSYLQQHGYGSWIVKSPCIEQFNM
UniProt O95573: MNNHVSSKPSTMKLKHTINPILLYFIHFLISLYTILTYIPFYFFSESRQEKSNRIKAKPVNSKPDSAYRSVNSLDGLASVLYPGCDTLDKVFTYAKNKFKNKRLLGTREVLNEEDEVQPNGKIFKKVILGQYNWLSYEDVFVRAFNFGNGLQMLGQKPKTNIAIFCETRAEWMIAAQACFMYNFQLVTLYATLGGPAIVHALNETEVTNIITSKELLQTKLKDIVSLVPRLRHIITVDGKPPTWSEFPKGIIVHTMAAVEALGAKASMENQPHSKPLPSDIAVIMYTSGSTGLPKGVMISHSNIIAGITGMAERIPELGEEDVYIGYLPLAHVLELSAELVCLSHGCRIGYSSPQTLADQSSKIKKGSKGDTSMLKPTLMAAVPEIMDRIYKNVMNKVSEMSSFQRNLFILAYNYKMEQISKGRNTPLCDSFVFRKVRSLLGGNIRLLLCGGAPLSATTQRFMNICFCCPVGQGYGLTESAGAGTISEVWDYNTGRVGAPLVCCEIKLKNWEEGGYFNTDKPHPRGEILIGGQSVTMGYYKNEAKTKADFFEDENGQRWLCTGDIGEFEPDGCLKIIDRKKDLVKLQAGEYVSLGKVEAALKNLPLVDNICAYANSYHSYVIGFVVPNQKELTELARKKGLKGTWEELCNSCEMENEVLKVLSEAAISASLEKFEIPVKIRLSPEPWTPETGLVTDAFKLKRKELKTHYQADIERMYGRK
UniProt Q6PD74: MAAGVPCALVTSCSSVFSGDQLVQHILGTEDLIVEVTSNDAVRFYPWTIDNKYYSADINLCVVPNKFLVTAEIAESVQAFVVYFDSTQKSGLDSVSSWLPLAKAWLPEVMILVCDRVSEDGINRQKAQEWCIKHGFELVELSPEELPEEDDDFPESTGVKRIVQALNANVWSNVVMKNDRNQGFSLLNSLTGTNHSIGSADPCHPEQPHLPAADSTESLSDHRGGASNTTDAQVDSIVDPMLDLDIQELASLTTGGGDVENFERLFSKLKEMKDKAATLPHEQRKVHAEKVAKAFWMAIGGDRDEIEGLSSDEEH
UniProt Q4L235: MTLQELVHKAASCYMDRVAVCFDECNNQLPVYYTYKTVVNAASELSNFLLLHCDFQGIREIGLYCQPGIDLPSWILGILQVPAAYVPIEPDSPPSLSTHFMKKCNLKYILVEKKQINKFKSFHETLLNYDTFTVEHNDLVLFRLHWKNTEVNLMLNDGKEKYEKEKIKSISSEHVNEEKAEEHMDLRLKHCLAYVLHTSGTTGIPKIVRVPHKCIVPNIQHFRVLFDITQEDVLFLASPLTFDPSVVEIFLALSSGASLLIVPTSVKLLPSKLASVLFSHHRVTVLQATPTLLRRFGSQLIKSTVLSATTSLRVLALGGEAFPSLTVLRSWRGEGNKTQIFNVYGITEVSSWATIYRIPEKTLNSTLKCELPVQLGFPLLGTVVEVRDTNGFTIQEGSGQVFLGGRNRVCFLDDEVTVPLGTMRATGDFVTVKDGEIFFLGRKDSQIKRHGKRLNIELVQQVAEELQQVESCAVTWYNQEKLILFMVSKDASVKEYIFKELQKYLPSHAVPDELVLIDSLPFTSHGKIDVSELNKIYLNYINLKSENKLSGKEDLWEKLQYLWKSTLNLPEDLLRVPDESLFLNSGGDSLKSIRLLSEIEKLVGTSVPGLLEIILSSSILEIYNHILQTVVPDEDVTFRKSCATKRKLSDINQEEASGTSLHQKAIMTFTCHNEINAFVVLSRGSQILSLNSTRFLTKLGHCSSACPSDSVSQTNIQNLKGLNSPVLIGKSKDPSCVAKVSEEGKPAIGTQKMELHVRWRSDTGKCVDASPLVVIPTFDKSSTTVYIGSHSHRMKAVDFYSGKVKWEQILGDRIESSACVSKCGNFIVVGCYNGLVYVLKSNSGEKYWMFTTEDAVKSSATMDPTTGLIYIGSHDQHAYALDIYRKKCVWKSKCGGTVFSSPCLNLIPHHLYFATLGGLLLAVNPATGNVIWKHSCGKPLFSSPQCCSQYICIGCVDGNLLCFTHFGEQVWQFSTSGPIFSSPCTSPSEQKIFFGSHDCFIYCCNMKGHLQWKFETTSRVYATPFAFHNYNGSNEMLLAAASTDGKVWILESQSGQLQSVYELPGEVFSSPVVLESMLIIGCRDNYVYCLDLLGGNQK
UniProt Q5JTZ9, whole entry, looked up: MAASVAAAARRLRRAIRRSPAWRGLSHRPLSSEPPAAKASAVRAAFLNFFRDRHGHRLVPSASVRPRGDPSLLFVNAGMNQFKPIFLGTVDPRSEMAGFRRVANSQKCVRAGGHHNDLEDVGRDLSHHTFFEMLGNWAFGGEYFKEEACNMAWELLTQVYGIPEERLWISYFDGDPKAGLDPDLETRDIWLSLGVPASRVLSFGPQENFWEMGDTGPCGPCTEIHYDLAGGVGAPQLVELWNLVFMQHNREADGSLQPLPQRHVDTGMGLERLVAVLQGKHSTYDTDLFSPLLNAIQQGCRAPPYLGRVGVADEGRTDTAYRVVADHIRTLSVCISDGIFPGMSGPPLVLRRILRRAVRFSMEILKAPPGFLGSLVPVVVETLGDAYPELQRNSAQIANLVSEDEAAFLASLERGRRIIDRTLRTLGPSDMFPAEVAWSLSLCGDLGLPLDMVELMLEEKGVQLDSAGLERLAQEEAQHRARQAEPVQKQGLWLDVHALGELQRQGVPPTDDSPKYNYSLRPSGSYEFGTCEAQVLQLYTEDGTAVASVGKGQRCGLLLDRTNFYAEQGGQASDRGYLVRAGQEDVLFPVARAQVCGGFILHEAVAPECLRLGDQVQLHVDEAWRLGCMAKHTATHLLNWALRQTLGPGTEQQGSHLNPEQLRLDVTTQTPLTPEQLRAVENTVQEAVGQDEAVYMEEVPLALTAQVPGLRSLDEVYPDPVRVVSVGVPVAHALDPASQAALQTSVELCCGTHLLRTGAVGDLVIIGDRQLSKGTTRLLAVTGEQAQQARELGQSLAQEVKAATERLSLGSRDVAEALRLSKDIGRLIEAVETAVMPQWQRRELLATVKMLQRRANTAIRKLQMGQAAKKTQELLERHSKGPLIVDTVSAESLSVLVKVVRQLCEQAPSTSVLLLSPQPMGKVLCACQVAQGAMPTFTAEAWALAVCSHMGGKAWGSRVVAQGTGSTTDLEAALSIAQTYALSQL
UniProt P49748: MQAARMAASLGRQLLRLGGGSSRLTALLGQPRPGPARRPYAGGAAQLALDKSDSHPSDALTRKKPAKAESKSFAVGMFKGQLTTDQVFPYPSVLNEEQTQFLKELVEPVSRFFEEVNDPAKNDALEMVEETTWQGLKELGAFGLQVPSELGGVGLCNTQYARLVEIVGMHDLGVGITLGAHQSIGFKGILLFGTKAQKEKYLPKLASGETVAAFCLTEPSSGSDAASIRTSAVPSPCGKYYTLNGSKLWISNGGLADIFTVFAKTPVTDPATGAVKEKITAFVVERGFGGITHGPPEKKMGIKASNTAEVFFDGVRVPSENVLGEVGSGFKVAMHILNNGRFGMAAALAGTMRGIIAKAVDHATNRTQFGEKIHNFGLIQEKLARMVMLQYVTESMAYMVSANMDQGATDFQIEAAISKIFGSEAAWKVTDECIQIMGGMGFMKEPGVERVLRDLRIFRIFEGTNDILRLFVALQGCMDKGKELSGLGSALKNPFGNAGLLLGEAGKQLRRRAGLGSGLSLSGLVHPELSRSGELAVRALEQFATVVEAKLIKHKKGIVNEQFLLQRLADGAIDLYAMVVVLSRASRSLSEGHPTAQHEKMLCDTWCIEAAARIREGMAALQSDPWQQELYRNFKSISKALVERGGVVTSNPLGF
UniProt Q9NX38: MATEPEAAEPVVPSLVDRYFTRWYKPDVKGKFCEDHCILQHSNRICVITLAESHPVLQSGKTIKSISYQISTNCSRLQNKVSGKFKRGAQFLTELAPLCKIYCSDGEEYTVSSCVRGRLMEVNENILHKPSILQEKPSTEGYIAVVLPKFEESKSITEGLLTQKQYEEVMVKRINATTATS

The values that follow come from the supplement of paper PMC10849652.

Compound in this assay: CN1CCc2c(c3ccccc3n2Cc2ccc(C(=O)NO)cc2)C1 [Tubastatin A]
Description: log2 fold change, soluble protein after heating vs DMSO (PISA); higher = thermal stabilisation; K562 cells, 10 uM, 30 min; active = over 0.2 and 3.5 SD of the protein, either way, in both replicates (recomputed). In outline:
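Soluble protein was defined as the supernatant after 21,000xg for 90 min. It came from K562 cells at 2×10^6 cells/mL given 10 μM compound for 30 min, heated in aliquots for 3 min across 48°C-58°C, pooled, and extracted in PBS with 0.5% NP-40 at 4°C, and was quantified by TMTpro 16plex LC-MS/MS with equalised channel sums. Thermal stability against control samples, from duplicates, is reported as log2 fold change.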
As for AAK1 (UniProt Q2M2I8), the log2 fold change is inactive: 0.003.

For ADAMTS5 (UniProt Q9UNA0), the log2 fold change is inactive: 0.222.

In the case of ABHD13 (UniProt Q7L211), the log2 fold change is inactive: -0.085.

For ACSL1 (UniProt P33121), the log2 fold change is inactive: -0.075.

ABHD16A (UniProt O95870): the log2 fold change is inactive: 0.004.

With ACP1 isoform 2 (UniProt P24666), the log2 fold change was inactive: 0.111.

Turning to AAR2 (UniProt Q9Y312), the log2 fold change was inactive: -0.027.

As to ACSM3 (UniProt Q53FZ2), the log2 fold change was inactive: 0.009.

As to ABCC10 (UniProt Q5T3U5), the log2 fold change is inactive: 0.118.

AAMP (UniProt Q13685): the log2 fold change is inactive: -0.049.

As to ACSL4 (UniProt O60488), the log2 fold change is inactive: 0.071.

Consider ABHD17A isoform 2 (UniProt Q96GS6), for which the log2 fold change was inactive: 0.065.

In the case of ACAP2 (UniProt Q15057), the log2 fold change was inactive: 0.001.

ACTR1B (UniProt P42025): the log2 fold change was inactive: -0.004.

Take ACP1 (UniProt P24666): the log2 fold change is inactive: 0.141.

As to ADAD1 (UniProt Q96M93), the log2 fold change was inactive: 0.101.

For the target ABCC5 (UniProt O15440), the log2 fold change is inactive: 0.002.

Take ACSL3 (UniProt O95573): the log2 fold change was inactive: -0.022.

Turning to ADAM15 (UniProt Q13444), the log2 fold change was inactive: 0.065.

In the case of AAGAB (UniProt Q6PD74), the log2 fold change is inactive: 0.016.

For ACSL6 isoform 1 (UniProt Q9UKU0), the log2 fold change is inactive: -0.076.

For the target ABCB6 (UniProt Q9NP58), the log2 fold change was inactive: -0.017.

For the target ABCA3 (UniProt Q99758), the log2 fold change is inactive: -0.05.

For the target AASDH (UniProt Q4L235), the log2 fold change was inactive: 0.16.

As for ACO2 (UniProt Q99798), the log2 fold change was inactive: -0.021.

As for ACADM isoform 2 (UniProt P11310), the log2 fold change is inactive: -0.03.

As for ACIN1 (UniProt Q9UKV3), the log2 fold change is inactive: 0.032.

On to AAK1, A0A096LP25, for which the log2 fold change was inactive: -0.05.

Take ACSF3 (UniProt Q4G176): the log2 fold change was inactive: -0.067.

Regarding AARS2 (UniProt Q5JTZ9), the log2 fold change is inactive: -0.096.

Take ACBD6 (UniProt Q9BR61): the log2 fold change is inactive: 0.196.

Turning to ACADVL isoform 3 (UniProt P49748), the log2 fold change was inactive: -0.028.

Turning to ACSL5 isoform 3 (UniProt Q9ULC5), the log2 fold change was inactive: -0.057.

Regarding AARSD1 isoform 3 (UniProt Q9BTE6), the log2 fold change was active: -0.336.

With ABITRAM (UniProt Q9NX38), the log2 fold change was inactive: -0.007.
